Measured values: publication PMC6896172, “Successful Targeting of the Warburg Effect in Prostate Cancer by Glucose-Conjugated 1,4-Naphthoquinones” (Cancers, 2019)
This continues a long series; more values of the same kind are listed elsewhere.

System: 22Rv1 cells
Assay: Global proteome analysis (LC-MS/MS, DIA) of differentially expressed proteins
Format: cell-based, human
Description: 22Rv1 cells were seeded in T75 culture bottles (4 × 10^6 cells/bottle in 20 mL/bottle), treated for 48 h with the 5 µM of compound 11 or vehicle (DMSO), harvested by scratching, washed twice with ice-cold PBS and flash-frozen. Cells were lysed and sonicated. The protein extracts were then heat-denaturated, reduced, alkylated and digested by trypsin. Peptides were chromatographically separated using full recovery autosampler vials and a nano-UPLC system (Acquity, Waters Corporation, Milford, MS, USA), coupled via electrospray ionization (ESI) to a tandem mass spectrometer equipped with a quadrupole and an orbitrap (QExactive, Thermo Fisher Scientific, Bremen, Germany), using MS/MS mode in data dependent acquisition (DDA) and data independent acquisition (DIA). The peptides, analyzed with DDA-LC-MS/MS, were identified with the search engine Sequest, integrated in the Proteome Discoverer software version 2.0 (Thermo Fischer Scientific) using the human Uniprot protein database (EMBL; Hinxton Cambridge, UK, release December 2018). […] For the details of sample preparation and proceeding, data acquisition and analysis see the Supplementary information. […]
serum (FBS, Invitrogen) and 1% penicillin/streptomycin (Invitrogen)). […]
Cell lines were lysed in 100 mM triethylammonium bicarbonate and 1% w/v sodium deoxycholate buffer followed by probe sonication to destroy polynucleotides and heat induce protein denaturing at 99 °C for 5 min. Protein concentrations were estimated with a bicinchonic acid (BCA) protein assay (Thermo Fisher Scientific, Bremen, Germany). 20 µg of protein were reduced in presence of 10 mM dithiotreithol (Sigma Aldrich) for 30 min at 60 °C followed by cysteine alkylation with 20 mM iodo acetamide (Sigma Aldrich) for 30 min at 37 °C in the dark and enzymatic degradation with sequencing grade trypsin (Promega) over night at 37 °C. Digestion was quenched with 1% formic acid (FA), precipitated sodium deoxycholate removed by centrifugation for 5 min at 14,000 g and the supernatant was dried in a vacuum centrifuge.
LC-MS/MS in Data Dependent and Data Independent Mode
Samples were resuspended in 0.1% FA and transferred into a full recovery autosampler vial (Waters). Chromatographic separation was achieved on a nano -UPLC system (Acquity, Waters Corporation, Milford, MS, USA) with a two-buffer-system (buffer A: 0.1% FA in water, buffer B:
0.1% FA in Acetonitrile (ACN), both at pH = 3). Attached to the UPLC was a reversed -phase peptide trapping column (Symmetry C18, 180 µm × 20 mm, 100 Å pore size, 5 µm particle size) for desalting, followed by a reversed-phase capillary separation of the tryptic peptides (BEH C18; 75 µm × 200 mm, 130 Å pore size, 1.7 µm particle size), using a 60 min gradient with increasing ACN concentration from 2–30% ACN. The eluting peptides were analyzed on a quadrupole-orbitrap mass spectrometer (QExactive, Thermo Fisher Scientific, Bremen, Germany) in data dependent acquisition (DDA) and data independent acquisition (DIA) for quantification.
In DDA mode, one replicate of each cell line was randomly chosen and 1 µg per sample was used per LC-MS/MS run to build a reference spectral library used for data extraction of samples acquired in DIA mode. For DDA, the 12 most intense ions per precursor scan (1 × 10 6 ions, 70,000 Resolution, 120 ms fill time) were analyzed by MS/MS (HCD at 25 normalized collision energy, 1 × 105 ions, 17,500 Resolution, 50 ms fill time) in a range of 400–1300 m/z. A dynamic precursor exclusion of 20 s was used. For DIA, 1 µg of each sample was analyzed using a 30 sequential 20 Da fixed window method covering the mass range from 400 –1000 m/z. Per cycle, 2 precursor scans (1 × […]
28 normalized collision energy, 1 × 106 ions, 17,500 Resolution, 50 ms fill time) were performed.
After the first precursor scan, 15 MS/MS scans were performed covering the precursor mass range from 400–700 m/z followed by the second precursor scan and another 15 MS/MS scans ranging from […]
LC-MS/MS Data Processing and Analysis […]

CC1(C)OC2OC(C(O)COC3=CC(=O)c4cccc(O)c4C3=O)C(O)C2O1 (stereo not drawn) [Compound 11]
Fold change (treated / control) (DHX15_HUMAN O43143): 0.9051
Fold change (treated / control) (DHX30_HUMAN Q7L2E3): 0.6273
Fold change (treated / control) (DIAP1_HUMAN O60610): 1.239
Fold change (treated / control) (DIDO1_HUMAN Q9BTC0): 0.5009
Fold change (treated / control) (DJB11_HUMAN Q9UBS4): 1.136
Fold change (treated / control) (DKC1_HUMAN O60832): 0.8634
Fold change (treated / control) (DNJA3_HUMAN Q96EY1): 1.243
Fold change (treated / control) (DNJC7_HUMAN Q99615): 0.6825
Fold change (treated / control) (DNLI1_HUMAN P18858): 0.4962
Fold change (treated / control) (DNMT1_HUMAN P26358): 0.5164
Fold change (treated / control) (DNS2A_HUMAN O00115): 1.462
Fold change (treated / control) (DOPD_HUMAN P30046): 1.3746
Fold change (treated / control) (DPOE3_HUMAN Q9NRF9): 0.6062
Fold change (treated / control) (DPP2_HUMAN Q9UHL4): 1.527
Fold change (treated / control) (DUT_HUMAN P33316): 0.4993
Fold change (treated / control) (DX39B_HUMAN Q13838): 0.8243
Fold change (treated / control) (DYHC1_HUMAN Q14204): 1.111
Fold change (treated / control) (ECH1_HUMAN Q13011): 1.323
Fold change (treated / control) (ECHB_HUMAN P55084): 0.9071
Fold change (treated / control) (EDF1_HUMAN O60869): 0.6154
Fold change (treated / control) (EDN3_HUMAN P14138): 0.08248
Fold change (treated / control) (EF1A2_HUMAN Q05639): 1.362
Fold change (treated / control) (EF1B_HUMAN P24534): 1.196
Fold change (treated / control) (EF1D_HUMAN P29692): 1.228
Fold change (treated / control) (EF1G_HUMAN P26641): 1.244
Fold change (treated / control) (EF2_HUMAN P13639): 1.234
Fold change (treated / control) (EFTU_HUMAN P49411): 0.6185
Fold change (treated / control) (EI2BA_HUMAN Q14232): 0.8901
Fold change (treated / control) (ERF3A_HUMAN P15170): 1.126
Fold change (treated / control) (ERGI1_HUMAN Q969X5): 1.217
Fold change (treated / control) (ERP29_HUMAN P30040): 1.223
Fold change (treated / control) (ERP44_HUMAN Q9BS26): 1.188
Fold change (treated / control) (ETFA_HUMAN P13804): 0.8829
Fold change (treated / control) (EZRI_HUMAN P15311): 1.285
Fold change (treated / control) (F111B_HUMAN Q6SJ93): 0.3955
Fold change (treated / control) (FA5_HUMAN P12259): 3.338
Fold change (treated / control) (FAHD1_HUMAN Q6P587): 1.4702
Fold change (treated / control) (FAKD2_HUMAN Q9NYY8): 0.6444
Fold change (treated / control) (FAKD4_HUMAN Q969Z0): 0.7242
Fold change (treated / control) (FAS_HUMAN P49327): 0.6765
Fold change (treated / control) (FFAR4_HUMAN Q5NUL3): 1.972
Fold change (treated / control) (FIS1_HUMAN Q9Y3D6): 1.23
Fold change (treated / control) (FKBP8_HUMAN Q14318): 0.6712
Fold change (treated / control) (FLII_HUMAN Q13045): 1.166
Fold change (treated / control) (FLOT2_HUMAN Q14254): 0.7567
Fold change (treated / control) (G3BP1_HUMAN Q13283): 0.8044
Fold change (treated / control) (G6PI_HUMAN P06744): 1.197
Fold change (treated / control) (GANAB_HUMAN Q14697): 1.172
Fold change (treated / control) (GAR1_HUMAN Q9NY12): 1.412
Fold change (treated / control) (GARS_HUMAN P41250): 1.337
Fold change (treated / control) (GBB1_HUMAN P62873): 1.1916
Fold change (treated / control) (GCDH_HUMAN Q92947): 0.7269
Fold change (treated / control) (GDF15_HUMAN Q99988): 6.064
Fold change (treated / control) (GDIA_HUMAN P31150): 1.322
Fold change (treated / control) (GELS_HUMAN P06396): 3.759
Fold change (treated / control) (GEPH_HUMAN Q9NQX3): 1.319
Fold change (treated / control) (GFPT1_HUMAN Q06210): 1.547
Fold change (treated / control) (GGH_HUMAN Q92820): 1.492
Fold change (treated / control) (GHITM_HUMAN Q9H3K2): 1.52
Fold change (treated / control) (GL8D1_HUMAN Q68CQ7): 0.6726
Fold change (treated / control) (GLOD4_HUMAN Q9HC38): 1.139
Fold change (treated / control) (GLYG_HUMAN P46976): 1.235
Fold change (treated / control) (GLYM_HUMAN P34897): 1.22
Fold change (treated / control) (GLYR1_HUMAN Q49A26): 0.5273
Fold change (treated / control) (GNA1_HUMAN Q96EK6): 1.1769
Fold change (treated / control) (GNL1_HUMAN P36915): 1.66
Fold change (treated / control) (GNS_HUMAN P15586): 1.596
Fold change (treated / control) (GPI8_HUMAN Q92643): 1.085
Fold change (treated / control) (GRP75_HUMAN P38646): 1.094
Fold change (treated / control) (GRSF1_HUMAN Q12849): 0.6529
Fold change (treated / control) (GSHR_HUMAN P00390): 1.251
Fold change (treated / control) (GTF2I_HUMAN P78347): 0.691
Fold change (treated / control) (H2AY_HUMAN O75367): 0.6499
Fold change (treated / control) (H4_HUMAN P62805): 0.5561
Fold change (treated / control) (H10_HUMAN P07305): 1.3122
Fold change (treated / control) (H15_HUMAN P16401): 0.9259
Fold change (treated / control) (HBA_HUMAN P69905): 2.912
Fold change (treated / control) (HCD2_HUMAN Q99714): 1.198
Fold change (treated / control) (HDHD5_HUMAN Q9BXW7): 0.4429
Fold change (treated / control) (HEM6_HUMAN P36551): 0.7705
Fold change (treated / control) (HEXB_HUMAN P07686): 1.461
Fold change (treated / control) (HIC2_HUMAN Q96JB3): 0.3552
Fold change (treated / control) (HINT1_HUMAN P49773): 1.268
Fold change (treated / control) (HINT2_HUMAN Q9BX68): 1.148
Fold change (treated / control) (HMGA1_HUMAN P17096): 1.982
Fold change (treated / control) (HMOX1_HUMAN P09601): 5.6185
Fold change (treated / control) (HNRH1_HUMAN P31943): 0.7863
Fold change (treated / control) (HNRH3_HUMAN P31942): 1.243
Fold change (treated / control) (HNRL2_HUMAN Q1KMD3): 1.166
Fold change (treated / control) (HNRPQ_HUMAN O60506): 1.316
Fold change (treated / control) (HNRPU_HUMAN Q00839): 0.9228
Fold change (treated / control) (HP1B3_HUMAN Q5SSJ5): 0.7171
Fold change (treated / control) (HPBP1_HUMAN Q9NZL4): 0.344
Fold change (treated / control) (HPRT_HUMAN P00492): 1.177
Fold change (treated / control) (HS71A_HUMAN P0DMV8): 0.8732
Fold change (treated / control) (HSPB1_HUMAN P04792): 1.876
Fold change (treated / control) (HSPB6_HUMAN O14558): 0.6349
Fold change (treated / control) (I2BP2_HUMAN Q7Z5L9): 1.686
Fold change (treated / control) (ICLN_HUMAN P54105): 2.931
Fold change (treated / control) (IDH3A_HUMAN P50213): 0.7993
Fold change (treated / control) (IDHC_HUMAN O75874): 1.211
Fold change (treated / control) (IF2B1_HUMAN Q9NZI8): 1.622
